No constants are given. Whether binding was seen depends on the method and setting. Some binding calls cover weakened binding; strength is not graded here.

The chains behind the UniProt entries cited, without tags or fusion partners. Residues count along the entry.
UniProt P09259, residues 31-537: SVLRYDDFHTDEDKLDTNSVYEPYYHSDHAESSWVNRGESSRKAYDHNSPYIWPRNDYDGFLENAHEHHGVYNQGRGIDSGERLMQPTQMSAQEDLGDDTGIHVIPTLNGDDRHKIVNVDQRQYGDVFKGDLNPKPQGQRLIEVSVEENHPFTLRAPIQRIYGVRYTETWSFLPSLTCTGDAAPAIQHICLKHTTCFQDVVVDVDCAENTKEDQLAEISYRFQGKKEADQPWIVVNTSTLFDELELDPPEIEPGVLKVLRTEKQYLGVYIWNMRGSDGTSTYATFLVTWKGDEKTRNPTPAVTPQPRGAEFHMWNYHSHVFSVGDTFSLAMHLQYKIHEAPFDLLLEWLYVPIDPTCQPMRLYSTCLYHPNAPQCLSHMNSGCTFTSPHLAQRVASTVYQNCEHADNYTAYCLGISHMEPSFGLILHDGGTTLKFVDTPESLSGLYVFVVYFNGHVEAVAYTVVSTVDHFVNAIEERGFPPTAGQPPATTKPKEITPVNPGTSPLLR
UniProt P14735, residues 42-1019: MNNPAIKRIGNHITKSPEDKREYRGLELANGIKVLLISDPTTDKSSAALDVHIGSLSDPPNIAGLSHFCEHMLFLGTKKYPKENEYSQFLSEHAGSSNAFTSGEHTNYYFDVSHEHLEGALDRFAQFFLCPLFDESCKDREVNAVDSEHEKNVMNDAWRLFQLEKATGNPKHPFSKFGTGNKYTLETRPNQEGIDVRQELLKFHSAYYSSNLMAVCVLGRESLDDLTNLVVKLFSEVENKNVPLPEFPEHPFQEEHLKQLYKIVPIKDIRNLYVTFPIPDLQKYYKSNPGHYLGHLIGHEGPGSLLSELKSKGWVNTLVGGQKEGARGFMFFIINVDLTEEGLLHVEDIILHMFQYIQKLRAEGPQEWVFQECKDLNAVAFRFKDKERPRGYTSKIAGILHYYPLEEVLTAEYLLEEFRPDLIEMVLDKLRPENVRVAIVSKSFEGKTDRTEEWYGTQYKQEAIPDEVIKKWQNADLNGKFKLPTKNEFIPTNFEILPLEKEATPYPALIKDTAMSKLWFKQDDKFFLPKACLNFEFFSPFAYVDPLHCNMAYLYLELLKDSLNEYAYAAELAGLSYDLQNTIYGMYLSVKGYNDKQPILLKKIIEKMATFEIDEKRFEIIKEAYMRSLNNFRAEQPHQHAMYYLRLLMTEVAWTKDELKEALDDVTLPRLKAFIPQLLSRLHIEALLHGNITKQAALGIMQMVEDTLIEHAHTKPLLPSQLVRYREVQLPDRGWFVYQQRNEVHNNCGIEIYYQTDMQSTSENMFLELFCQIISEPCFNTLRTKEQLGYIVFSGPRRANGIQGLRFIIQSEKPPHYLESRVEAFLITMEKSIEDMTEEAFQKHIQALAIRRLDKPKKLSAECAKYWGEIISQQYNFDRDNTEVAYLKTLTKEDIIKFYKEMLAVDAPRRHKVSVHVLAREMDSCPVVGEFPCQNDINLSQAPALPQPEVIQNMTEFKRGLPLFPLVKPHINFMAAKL

The assay addresses Varicella-zoster virus glycoprotein E (gE), recombinant protein, tag not told for these experiments (Varicella-zoster virus) (UniProt P09259). Nature of the assay: ELISA; gE pre-incubated (presaturated) with an excess of each antibody, the complexes then tested for rIDE binding; result as percentage of competition; both purified.

On to “recombinant soluble insulin-degrading enzyme (rIDE, residues 42-1,019) (from UniProt P14735 42-1019)”, for which the binding result is given as “binds”.

(Values after publication PMC12742838, “Discovery and structural investigation of Varicella-Zoster virus gE-neutralizing antibodies isolated from a convalescent patient” (Protein & Cell, 2025).)
